B1: SSR1 (protein, UniProt P43307 19-286, looked up)
Translocon-associated protein …: VLFRGGPRGLLAVAQDLTEDEETVEDSIIEDEDDEAEVEEDEPTDLVEDKEEEDVSGEPEASPSADTTILFVKGEDFPANNIVKFLVGFTNKGTEDFIVESLDASFRYPQDYQFYIQNFTALPLNTVVPPQRQATFEYSFIPAEPMGGRPFGLVINLNYKDLNGNVFQDAVFNQTVTVIEREDGLDGETIFMYMFLAGLGLLVIVGLHQLLESRKRKRPIQKVEMGTSSQNDVDMSWIPQETLNQINKASPRRLPRKRAQKRSVGSDE
B2: LRRC59 (protein, UniProt Q96AG4 1-307, looked up)
Leucine-rich …: MTKAGSKGGNLRDKLDGNELDLSLSDLNEVPVKELAALPKATILDLSCNKLTTLPSDFCGLTHLVKLDLSKNKLQQLPADFGRLVNLQHLDLLNNKLVTLPVSFAQLKNLKWLDLKDNPLDPVLAKVAGDCLDEKQCKQCANKVLQHMKAVQADQERERQRRLEVEREAEKKREAKQRAKEAQERELRKREKAEEKERRRKEYDALKAAKREQEKKPKKEANQAPKSKSGSRPRKPPPRKHTRSWAVLKLLLLLLLFGVAGGLVACRVTELQQQPLCTSVNTIYDNAVQGLRRHEILQWVLQTDSQQ
B3: ACSL3 (protein, UniProt O95573 1-720, looked up)
Fatty acid CoA ligase Acsl3: MNNHVSSKPSTMKLKHTINPILLYFIHFLISLYTILTYIPFYFFSESRQEKSNRIKAKPVNSKPDSAYRSVNSLDGLASVLYPGCDTLDKVFTYAKNKFKNKRLLGTREVLNEEDEVQPNGKIFKKVILGQYNWLSYEDVFVRAFNFGNGLQMLGQKPKTNIAIFCETRAEWMIAAQACFMYNFQLVTLYATLGGPAIVHALNETEVTNIITSKELLQTKLKDIVSLVPRLRHIITVDGKPPTWSEFPKGIIVHTMAAVEALGAKASMENQPHSKPLPSDIAVIMYTSGSTGLPKGVMISHSNIIAGITGMAERIPELGEEDVYIGYLPLAHVLELSAELVCLSHGCRIGYSSPQTLADQSSKIKKGSKGDTSMLKPTLMAAVPEIMDRIYKNVMNKVSEMSSFQRNLFILAYNYKMEQISKGRNTPLCDSFVFRKVRSLLGGNIRLLLCGGAPLSATTQRFMNICFCCPVGQGYGLTESAGAGTISEVWDYNTGRVGAPLVCCEIKLKNWEEGGYFNTDKPHPRGEILIGGQSVTMGYYKNEAKTKADFFEDENGQRWLCTGDIGEFEPDGCLKIIDRKKDLVKLQAGEYVSLGKVEAALKNLPLVDNICAYANSYHSYVIGFVVPNQKELTELARKKGLKGTWEELCNSCEMENEVLKVLSEAAISASLEKFEIPVKIRLSPEPWTPETGLVTDAFKLKRKELKTHYQADIERMYGRK
B4: C11orf57 (protein, UniProt Q6ZUT1 1-292, looked up)
Uncharacterized protein NKAPD1: MSRIPLGKVLLRNVIRHTDAHNKIQEESDMWKIRELEKQMEDAYRGTKRKMLPSSSSRMRSDGFDEESQRYYWRPKNEISGTLEDDFLKAKSWNKKFYDYEANMPDRWGHSGYKELYPEEFETDSDQQDITNGKKTSPQVKSSTHESRKHKKSKKSHKKKQKKRSHKKQKKSKKEATDITADSSSEFSEETGASGTRKGKQPHKRKKKSRKKSLKKPALFLEAESNTSHSDDSASSSSEESEERDTKKTKRKKREKKAHTSVANNEIQERTNKRTNWKVATDERSAESSEDD
B5: DEK (protein, UniProt P35659 2-375, looked up)
Protein DEK: SASAPAAEGEGTPTQPASEKEPEMPGPREESEEEEDEDDEEEEEEEKEKSLIVEGKREKKKVERLTMQVSSLQREPFTIAQGKGQKLCEIERIHFFLSKKKTDELRNLHKLLYNRPGTVSSLKKNVGQFSGFPFEKGSVQYKKKEEMLKKFRNAMLKSICEVLDLERSGVNSELVKRILNFLMHPKPSGKPLPKSKKTCSKGSKKERNSSGMARKAKRTKCPEILSDESSSDEDEKKNKEESSDDEDKESEEEPPKKTAKREKPKQKATSKSKKSVKSANVKKADSSTTKKNQNSSKKESESEDSSDDEPLIKKLKKPPTDEELKETIKKLLASANLEEVTMKQICKKVYENYPTYDLTERKDFIKTTVKELIS
B6: SRSF7 (protein, UniProt Q16629 1-238, looked up)
Serine/arginine-rich splicing …: MSRYGRYGGETKVYVGNLGTGAGKGELERAFSYYGPLRTVWIARNPPGFAFVEFEDPRDAEDAVRGLDGKVICGSRVRVELSTGMPRRSRFDRPPARRPFDPNDRCYECGEKGHYAYDCHRYSRRRRSRSRSRSHSRSRGRRYSRSRSRSRGRRSRSASPRRSRSISLRRSRSASLRRSRSGSIKGSRYFQSPSRSRSRSRSISRPRSSRSKSRSPSPKRSRSPSGSPRRSASPERMD
B7: ACOT9 (protein, UniProt Q9Y305 22-439, looked up)
Acyl-coenzyme A thioesterase …: LTQGPQNPKKQGIFHIHEVRDKLREIVGASTNWRDHVKAMEERKLLHSFLAKSQDGLPPRRMKDSYIEVLLPLGSEPELREKYLTVQNTVRFGRILEDLDSLGVLICYMHNKIHSAKMSPLSIVTALVDKIDMCKKSLSPEQDIKFSGHVSWVGKTSMEVKMQMFQLHGDEFCPVLDATFVMVARDSENKGPAFVNPLIPESPEEEELFRQGELNKGRRIAFSSTSLLKMAPSAEERTTIHEMFLSTLDPKTISFRSRVLPSNAVWMENSKLKSLEICHPQERNIFNRIFGGFLMRKAYELAWATACSFGGSRPFVVAVDDIMFQKPVEVGSLLFLSSQVCFTQNNYIQVRVHSEVASLQEKQHTTTNVFHFTFMSEKEVPLVFPKTYGESMLYLDGQRHFNSMSGPATLRKDYLVEP
B8: PRDX4 (protein, UniProt Q13162 38-271, looked up)
Peroxiredoxin-4: WETEERPRTREEECHFYAGGQVYPGEASRVSVADHSLHLSKAKISKPAPYWEGTAVIDGEFKELKLTDYRGKYLVFFFYPLDFTFVCPTEIIAFGDRLEEFRSINTEVVACSVDSQFTHLAWINTPRRQGGLGPIRIPLLSDLTHQISKDYGVYLEDSGHTLRGLFIIDDKGILRQITLNDLPVGRSVDETLRLVQAFQYTDKHGEVCPAGWKPGSETIIPDPAGKLKYFDKLN
B9: P4HA2 (protein, UniProt O15460 22-535, looked up)
Prolyl 4-hydroxylase subunit …: EFFTSIGHMTDLIYAEKELVQSLKEYILVEEAKLSKIKSWANKMEALTSKSAADAEGYLAHPVNAYKLVKRLNTDWPALEDLVLQDSAAGFIANLSVQRQFFPTDEDEIGAAKALMRLQDTYRLDPGTISRGELPGTKYQAMLSVDDCFGMGRSAYNEGDYYHTVLWMEQVLKQLDAGEEATTTKSQVLDYLSYAVFQLGDLHRALELTRRLLSLDPSHERAGGNLRYFEQLLEEEREKTLTNQTEAELATPEGIYERPVDYLPERDVYESLCRGEGVKLTPRRQKRLFCRYHHGNRAPQLLIAPFKEEDEWDSPHIVRYYDVMSDEEIERIKEIAKPKLARATVRDPKTGVLTVASYRVSKSSWLEEDDDPVVARVNRRMQHITGLTVKTAELLQVANYGVGGQYEPHFDFSRNDERDTFKHLGTGNRVATFLNYMSDVEAGGATVFPDLGAAIWPKKGTAVFWYNLLRSGEGDYRTRHAACPVLVGCKWVSNKWFHERGQEFLRPCGSTEVD
B10: ATP5F1 (protein, UniProt P24539 43-256, looked up)
ATP synthase peripheral stalk …: PVPPLPEYGGKVRYGLIPEEFFQFLYPKTGVTGPYVLGTGLILYALSKEIYVISAETFTALSVLGVMVYGIKKYGPFVADFADKLNEQKLAQLEEAKQASIQHIQNAIDTEKSQQALVQKRHYLFDVQRNNIAMALEVTYRERLYRVYKEVKNRLDYHISVQNMMRRKEQEHMINWVEKHVVQSISTQQEKETIAKCIADLKLLAKKAQAQPVM
B11: TMCO1 (protein, UniProt Q9UM00 1-239, looked up)
Calcium load-activated …: MPRKRKCDLRAVRVGLLLGGGGVYGSRFRFTFPGCRALSPWRVRVQRRRCEMSTMFADTLLIVFISVCTALLAEGITWVLVYRTDKYKRLKAEVEKQSKKLEKKKETITESAGRQQKKKIERQEEKLKNNNRDLSMVRMKSMFAIGFCFTALMGMFNSIFDGRVVAKLPFTPLSYIQGLSHRNLLGDDTTDCSFIFLYILCTMSIRQNIQKILGLAPSRAATKQAGGFLGPPPPSGKFS
B12: IRS4 (protein, UniProt O14654 1-1257, looked up)
Insulin receptor substrate 4: MASCSFTRDQATRRLRGAAAAAAAALAAVVTTPLLSSGTPTALIGTGSSCPGAMWLSTATGSRSDSESEEEDLPVGEEVCKRGYLRKQKHGHRRYFVLKLETADAPARLEYYENARKFRHSVRAAAAAAAAAASGAAIPPLIPPRRVITLYQCFSVSQRADARYRHLIALFTQDEYFAMVAENESEQESWYLLLSRLILESKRRRCGTLGAQPDGEPAALAAAAAAEPPFYKDVWQVIVKPRGLGHRKELSGVFRLCLTDEEVVFVRLNTEVASVVVQLLSIRRCGHSEQYFFLEVGRSTVIGPGELWMQVDDCVVAQNMHELFLEKMRALCADEYRARCRSYSISIGAHLLTLLSARRHLGLVPLEPGGWLRRSRFEQFCHLRAIGDGEDEMLFTRRFVTPSEPVAHSRRGRLHLPRGRRSRRAVSVPASFFRRLAPSPARPRHPAEAPNNGARLSSEVSGSGSGNFGEEGNPQGKEDQEGSGGDYMPMNNWGSGNGRGSGGGQGSNGQGSSSHSSGGNQCSGEGQGSRGGQGSNGQGSGGNQCSRDGQGTAGGHGSGGGQRPGGGHGSGGGQGPGDGHGSGGGKNSGGGKGSGSGKGSDGDGERGKSLKKRSYFGKLTQSKQQQMPPPPPPPPPPPPAGGTGGKGKSGGRFRLYFCVDRGATKECKEAKEVKDAEIPEGAARGPHRARAFDEDEDDPYVPMRPGVATPLVSSSDYMPMAPQNVSASKKRHSRSPFEDSRGYMMMFPRVSPPPAPSPPKAPDTNKEDDSKDNDSESDYMFMAPGAGAIPKNPRNPQGGSSSKSWSSYFSLPNPFRSSPLGQNDNSEYVPMLPGKFLGRGLDKEVSYNWDPKDAASKPSGEGSFSKPGDGGSPSKPSDHEPPKNKAKRPNRLSFITKGYKIKPKPQKPTHEQREADSSSDYVNMDFTKRESNTPAPSTQGLPDSWGIIAEPRQSAFSNYVNVEFGVPFPNPANDLSDLLRAIPRANPLSLDSARWPLPPLPLSATGSNAIEEEGDYIEVIFNSAMTPAMALADSAIRYDAETGRIYVVDPFSECCMDISLSPSRCSEPPPVARLLQEEEQERRRPQSRSQSFFAAARAAVSAFPTDSLERDLSPSSAPAVASAAEPTLALSQVVAAASALAAAPGIGAAAAAAGFDSASARWFQPVANAADAEAVRGAQDVAGGSNPGAHNPSANLARGDNQAGGAAAAAAAPEPPPRSRRVPRPPEREDSDNDDDTHVRMDFARRDNQFDSPKRGR

system: mSWI/SNF complexes; experiment: mSWI/SNF complex purification with HA-tagged baits and mass spectrometry (peptide counts); design: species or system human; conditions: 293_HA-BRD7 bait purification, mass spectrometry; total peptides per co-purified protein

Total, 3:
B1, B2, B3, B4, B5, B6, B7, B8, B9, B10, B11, B12

same assay, conditions: 293_HA-BRD7 bait purification, mass spectrometry; unique peptides per co-purified protein

Unique, 3:
B1, B2, B3, B4, B5, B6, B7, B8, B9, B10, B11, B12

Reference: patent US12729225B2, “Non-canonical SWI/SNF complex and uses thereof” (Dana-Farber Cancer Institute, Inc., priority 2018, dated 2026)
